This note sets out measurements from article PMC10912509.

Sequences of proteins named here, by UniProt entry; tags and fusion partners are left off. A change or cut given only in a name is not applied to a line headed by its entry.
UniProt Q14258: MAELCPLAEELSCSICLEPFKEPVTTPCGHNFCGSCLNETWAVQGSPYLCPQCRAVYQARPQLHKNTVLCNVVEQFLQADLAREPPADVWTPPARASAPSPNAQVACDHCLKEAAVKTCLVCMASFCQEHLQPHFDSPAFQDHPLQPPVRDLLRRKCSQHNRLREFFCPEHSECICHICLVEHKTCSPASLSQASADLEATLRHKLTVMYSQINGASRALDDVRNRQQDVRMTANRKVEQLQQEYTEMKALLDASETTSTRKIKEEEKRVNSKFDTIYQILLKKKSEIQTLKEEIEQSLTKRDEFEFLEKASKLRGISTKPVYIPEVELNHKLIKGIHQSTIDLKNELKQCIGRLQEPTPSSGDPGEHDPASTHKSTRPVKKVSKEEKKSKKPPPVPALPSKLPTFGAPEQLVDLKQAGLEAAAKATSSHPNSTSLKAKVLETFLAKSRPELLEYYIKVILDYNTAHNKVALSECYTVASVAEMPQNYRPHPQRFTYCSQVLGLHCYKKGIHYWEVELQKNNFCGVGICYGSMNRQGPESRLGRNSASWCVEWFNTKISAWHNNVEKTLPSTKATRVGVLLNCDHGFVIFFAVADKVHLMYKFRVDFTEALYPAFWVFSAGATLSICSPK

No constants are given. Whether binding was seen depends on the method and setting. Binding seen in cells or lysates may run through a third protein. Some entries that bind do so weakly or less than the wild type. For some assays here: Where a sequence is shown, tags or fusion partners need not be part of it.

Assay [1] concerns the target T1, Flag-tagged ITPKB (inositol 1,4,5-triphosphate (IP3) kinase B), wild type (UniProt P27987).
T1 sequence: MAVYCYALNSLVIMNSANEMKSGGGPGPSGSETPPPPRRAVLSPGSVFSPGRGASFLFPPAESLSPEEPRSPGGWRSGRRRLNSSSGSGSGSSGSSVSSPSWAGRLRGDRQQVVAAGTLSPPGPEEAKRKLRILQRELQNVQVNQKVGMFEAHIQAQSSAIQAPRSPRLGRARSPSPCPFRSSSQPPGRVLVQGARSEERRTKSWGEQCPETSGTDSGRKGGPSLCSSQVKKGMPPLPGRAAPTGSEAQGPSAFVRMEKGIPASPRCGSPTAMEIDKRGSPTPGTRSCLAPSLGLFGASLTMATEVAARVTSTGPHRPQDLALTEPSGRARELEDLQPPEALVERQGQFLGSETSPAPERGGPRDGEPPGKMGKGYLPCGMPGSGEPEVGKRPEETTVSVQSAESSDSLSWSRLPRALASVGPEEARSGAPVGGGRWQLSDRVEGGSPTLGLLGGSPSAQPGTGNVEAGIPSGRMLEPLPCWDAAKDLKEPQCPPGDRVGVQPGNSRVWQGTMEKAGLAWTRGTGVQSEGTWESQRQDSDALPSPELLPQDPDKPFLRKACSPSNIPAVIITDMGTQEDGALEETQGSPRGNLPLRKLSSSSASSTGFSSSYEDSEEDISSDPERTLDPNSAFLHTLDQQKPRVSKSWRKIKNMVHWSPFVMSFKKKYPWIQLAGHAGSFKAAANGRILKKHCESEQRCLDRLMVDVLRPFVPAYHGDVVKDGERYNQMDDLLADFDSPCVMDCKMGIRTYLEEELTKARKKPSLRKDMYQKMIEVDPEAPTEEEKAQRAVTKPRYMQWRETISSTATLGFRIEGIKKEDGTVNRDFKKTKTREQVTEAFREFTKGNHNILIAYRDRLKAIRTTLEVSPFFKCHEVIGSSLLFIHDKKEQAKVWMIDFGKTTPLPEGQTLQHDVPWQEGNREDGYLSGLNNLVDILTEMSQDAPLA
The assay can be described thus: co-IP; Trim25 S100D and S100A mutants with ITPKB; HEK293T cells co-transfected with the respective plasmids, MG132 for 3 h after 48 h of transfection, lysates immunoprecipitated and blotted (told at the end of the legend, after panel e); which protein was precipitated is not told.

Assay [2] addresses T1, Flag-tagged ITPKB (inositol 1,4,5-triphosphate (IP3) kinase B), wild type. The assay can be described thus: co-IP; HEK293T cells transfected with Flag-ITPKB (WT or truncations) and V5-Trim25; lysates precipitated with Anti-FLAG M2 magnetic beads, blotted; NETN buffer, overnight at 4 °C; in one panel cells pretreated with 100 μM TMZ, then 50 μM MG132 for 3 h.
The target in assay [3] is Trim25, endogenous (human (endogenous in T98G, U118, T98G-R, U118-R, HEK293T)) (UniProt Q14258). The assay can be described thus: proximity ligation; Duolink in situ PLA with Trim25 and ITPKB antibodies on fixed, permeabilised TMZ-sensitive and resistant glioma cells; dots counted with ImageJ.
For assay [4] the target is unchanged. The assay can be described thus: co-IP; endogenous proteins; lysates of TMZ-sensitive (T98G, U118) and resistant (T98G-R, U118-R) glioma cells precipitated with control IgG or anti-Trim25 antibody and protein A/G magnetic beads, NETN buffer (20 mM Tris-HCl pH 8.0, 500 mM NaCl, 1 mM EDTA, 0.5% NP-40), overnight at 4 °C; also T98G and U118 after 100 μM TMZ for 48 h.

As for “Trim25 S100A mutant (from UniProt Q14258 1-630) (enzyme)”, in assay [1], the binding entry is “binds”.

Regarding “Trim25 S100D mutant (from UniProt Q14258 1-630) (enzyme)”, the binding result in assay [1] is recorded as “binds”.

In the case of “V5-tagged Trim25, wild type (from UniProt Q14258 1-630) (enzyme)”, the binding entry in assay [2] is “binds”.

B1: ITPKB, endogenous (enzyme, UniProt P27987 1-946)
chain: T1 sequence
As to B1, the binding result in assay [3] and in assay [4] was “binds” in each case.
